Laboratory results: patent US20030108904A1
These are yes or no findings as the source states them, for the method shown. Some binding calls cover weakened binding; strength is not graded here.

Amino acid sequences for entries named in this document (tags omitted). A change or cut given only in a name is not applied to a line headed by its entry. Residues count along the entry.
UniProt Q5KU26: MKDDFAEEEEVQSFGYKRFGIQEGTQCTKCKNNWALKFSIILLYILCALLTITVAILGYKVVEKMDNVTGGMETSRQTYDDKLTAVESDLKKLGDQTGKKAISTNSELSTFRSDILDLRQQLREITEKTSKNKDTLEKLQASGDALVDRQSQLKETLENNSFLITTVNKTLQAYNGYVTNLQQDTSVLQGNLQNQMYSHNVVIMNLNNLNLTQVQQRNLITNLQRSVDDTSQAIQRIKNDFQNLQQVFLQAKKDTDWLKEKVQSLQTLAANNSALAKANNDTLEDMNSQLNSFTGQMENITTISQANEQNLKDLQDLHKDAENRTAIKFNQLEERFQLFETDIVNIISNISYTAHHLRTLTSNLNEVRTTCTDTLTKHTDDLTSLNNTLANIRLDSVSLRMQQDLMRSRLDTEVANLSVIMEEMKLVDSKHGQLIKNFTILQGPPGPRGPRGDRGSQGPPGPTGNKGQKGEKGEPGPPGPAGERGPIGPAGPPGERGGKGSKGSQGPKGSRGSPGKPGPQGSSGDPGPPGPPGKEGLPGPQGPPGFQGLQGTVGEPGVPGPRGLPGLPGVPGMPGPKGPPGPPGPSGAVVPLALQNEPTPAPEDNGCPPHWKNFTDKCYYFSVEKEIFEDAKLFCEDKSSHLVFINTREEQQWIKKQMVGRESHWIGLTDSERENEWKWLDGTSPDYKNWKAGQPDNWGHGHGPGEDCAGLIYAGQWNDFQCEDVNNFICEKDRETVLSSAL
UniProt P02768, residues 25-609: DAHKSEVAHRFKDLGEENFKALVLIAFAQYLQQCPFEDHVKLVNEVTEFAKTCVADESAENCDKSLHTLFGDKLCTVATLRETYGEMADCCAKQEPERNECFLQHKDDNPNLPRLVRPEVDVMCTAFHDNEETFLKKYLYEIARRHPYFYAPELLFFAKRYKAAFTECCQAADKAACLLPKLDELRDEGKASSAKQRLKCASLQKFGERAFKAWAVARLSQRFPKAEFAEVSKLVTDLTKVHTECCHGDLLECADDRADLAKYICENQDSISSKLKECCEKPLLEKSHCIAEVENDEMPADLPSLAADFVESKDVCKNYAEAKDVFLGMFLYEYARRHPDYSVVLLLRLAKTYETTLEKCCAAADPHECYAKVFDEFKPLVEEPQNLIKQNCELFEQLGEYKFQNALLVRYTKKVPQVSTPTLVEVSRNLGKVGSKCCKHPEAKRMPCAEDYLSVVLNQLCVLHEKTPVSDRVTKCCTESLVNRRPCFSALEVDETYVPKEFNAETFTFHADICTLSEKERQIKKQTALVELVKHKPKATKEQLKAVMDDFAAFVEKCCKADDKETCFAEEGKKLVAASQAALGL

Key:
[1] = molecular target: hSRCL-P1 stably expressed on CHO cells (CHO/hSRCL-P1), from vector pcDNA3.1/Myc-His A-hSRCL-P1 (human) (UniProt Q5KU26); assay: fluorescence microscopy; 10 µg/ml AGE-HSA on CHO/hSRCL-P1 cells, 3 h at 4° C., detected with anti-HSA antibody and Alexa 594 anti-goat IgG
[2] = molecular target: hSRCL-P1 stably expressed on CHO cells (CHO/hSRCL-P1), from vector pcDNA3.1/Myc-His A-hSRCL-P1 (human) (UniProt Q5KU26); assay: fluorescence microscopy on cells expressing hSRCL-P1 (FIG. 6 legend)
[3] = molecular target: hSRCL-P1 transiently expressed in CHO cells from vector pEGFP-N1-hSRCL-P1 (human) (UniProt Q5KU26); assay: fluorescence microscopy on CHO cells transiently expressing hSRCL-P1

- binding [1]: binds
- binding [2]: binds
- binding [3]: binds
Substance: AGE-HSA (AGE-human serum albumin) (from UniProt P02768 25-609) (ligand)
